Source: the supplement of paper PMC12872613
Structures can show the parent of a compound that is named as a salt. This is one part of the list. Rule as the data show it: active = 0.7 or more and inactive = the rest. Single values are uncertain, as repeats are few or missing.

Each molecule was assayed on MiaPaCa-2 CLSA-25 (assay: cell death relative to DMSO vehicle (fraction); higher = more cytotoxic). Details: 5 µM; treatment time 48 h; medium cystine 25 µM.
O=c1oc2c(O)c(O)cc3c(=O)oc4c(O)c(O)cc1c4c23 [Ellagic acid] was tested, and the cell death was inactive: -0.0313. With C[C@]12CCC(=O)C=C1CC[C@@H]1[C@@H]2CC[C@@]2(C)[C@H]1CC[C@]2(O)C(=O)CO [Cortodoxone] the cell death was inactive: 0.0894. In the case of CCCCCCCCCCCCCCCC(=O)NCCO [Palmidrol], the cell death was inactive: 0.164. With C=CC1=C(C)/C(=C/c2[nH]c(Cc3[nH]c(/C=C4\NC(=O)C(C)=C4C=C)c(C)c3CCC(=O)O)c(CCC(=O)O)c2C)NC1=O [Bilirubin] the cell death was inactive: 0.12. For COc1c(O)cc2oc3cc(O)c(CC=C(C)C)c(O)c3c(=O)c2c1CC=C(C)C [Mangostin], the cell death was active: 0.749. In the case of CC1=C(C)C(=O)C(C(CCCCCC(=O)O)c2ccccc2)=C(C)C1=O (centres undefined) [Seratrodast], the cell death was inactive: 0.168. With CC(C)(C)NC(=O)[C@H]1CC[C@H]2[C@@H]3CC[C@H]4NC(=O)C=C[C@]4(C)[C@H]3CC[C@]12C [Finasteride] the cell death was inactive: 0.132. For CCCC(C(=O)OCCN(CC)CC)(c1ccccc1)c1ccccc1 [Proadifen hydrochloride], the cell death was inactive: 0.537. In the case of O=S(=O)(CC1CS1)c1ccc(Oc2ccccc2)cc1 (centres undefined), the cell death was inactive: 0.163. For NCCc1ccc(O)cc1 [Tyramine], the cell death was inactive: -0.0206. For Cc1ccc(S(=O)(=O)NC(=O)NN2CCCCCC2)cc1 [Tolazamide], the cell death was inactive: -0.00669. For COC(=O)c1cc(OC)c2c(c1-c1c(C(=O)OC)cc(OC)c3c1OCO3)OCO2 [Bifendatatum], the cell death was inactive: 0.498. For CCC(=O)O[C@]1(C(=O)CCl)[C@@H](C)C[C@H]2[C@@H]3CCC4=CC(=O)C=C[C@]4(C)[C@@]3(F)[C@@H](O)C[C@@]21C [Clobetasol propionate], the cell death was inactive: 0.034. In the case of N=C(N)NCCC[C@H](N)C(=O)O [L-Arginine], the cell death was active: 0.835.
